Six substances from paper doi:10.1101/2022.09.21.508927 can be followed below.

These are yes or no findings as the source states them, for the method shown. Some entries that bind do so weakly or less than the wild type.

Common to all, as to test: two-hybrid
In test [1] the target is PulG (Klebsiella oxytoca) (UniProt P15746).
In test [2] the target is PulL (Klebsiella oxytoca) (UniProt P15751).
In test [3] the target is PulM (Klebsiella oxytoca) (UniProt P15752).
The target in test [4] is PulM^ΔCC (Klebsiella oxytoca) (UniProt P15752).

Take PulL^ΔCC (from UniProt P15751 1-398): the binding entry in test [1] is listed as “no binding”.
Regarding PulM (from UniProt P15752 1-161), the binding result in test [1] and in test [2] was “binds” in each case.
Regarding PulG (from UniProt P15746 1-140), the binding entry in test [3] and in test [4] was “binds” in each case.
As for PulM^ΔCC (from UniProt P15752 1-161), the binding entry in test [1] is on record as “binds”.
For the substance PulMΔN (from UniProt P15752 1-161), the binding result in test [2] is reported as “binds”.
Turning to PulL (from UniProt P15751 1-398), the results for the binding entry in test [1] and in test [3] were “no binding” and “binds”, respectively.
